The other results are listed elsewhere or left out.
compound: Cc1cc(ccc1-c1ccccc1)C(=O)N1CCCN(CC1)C(=O)CCl [compound 10]; assay: probe-labelled cysteine peptide fold change vs DMSO (competition) (log2 fold change); higher = less target engagement (more negative = stronger competition); conditions: 10 µM; THP-1; incubation time: 4 h
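Further: competitive profiling in live THP-1 cells: cysteine peptides tagged with an iodoacetamide desthiobiotin (IA-DTB) probe, intensity after compound treatment relative to DMSO-treated cells.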

Sequences of proteins named here, by UniProt entry; tags and fusion partners are left off. A change or cut given only in a name is not applied to a line headed by its entry.
UniProt Q6ZRS2, whole entry, looked up: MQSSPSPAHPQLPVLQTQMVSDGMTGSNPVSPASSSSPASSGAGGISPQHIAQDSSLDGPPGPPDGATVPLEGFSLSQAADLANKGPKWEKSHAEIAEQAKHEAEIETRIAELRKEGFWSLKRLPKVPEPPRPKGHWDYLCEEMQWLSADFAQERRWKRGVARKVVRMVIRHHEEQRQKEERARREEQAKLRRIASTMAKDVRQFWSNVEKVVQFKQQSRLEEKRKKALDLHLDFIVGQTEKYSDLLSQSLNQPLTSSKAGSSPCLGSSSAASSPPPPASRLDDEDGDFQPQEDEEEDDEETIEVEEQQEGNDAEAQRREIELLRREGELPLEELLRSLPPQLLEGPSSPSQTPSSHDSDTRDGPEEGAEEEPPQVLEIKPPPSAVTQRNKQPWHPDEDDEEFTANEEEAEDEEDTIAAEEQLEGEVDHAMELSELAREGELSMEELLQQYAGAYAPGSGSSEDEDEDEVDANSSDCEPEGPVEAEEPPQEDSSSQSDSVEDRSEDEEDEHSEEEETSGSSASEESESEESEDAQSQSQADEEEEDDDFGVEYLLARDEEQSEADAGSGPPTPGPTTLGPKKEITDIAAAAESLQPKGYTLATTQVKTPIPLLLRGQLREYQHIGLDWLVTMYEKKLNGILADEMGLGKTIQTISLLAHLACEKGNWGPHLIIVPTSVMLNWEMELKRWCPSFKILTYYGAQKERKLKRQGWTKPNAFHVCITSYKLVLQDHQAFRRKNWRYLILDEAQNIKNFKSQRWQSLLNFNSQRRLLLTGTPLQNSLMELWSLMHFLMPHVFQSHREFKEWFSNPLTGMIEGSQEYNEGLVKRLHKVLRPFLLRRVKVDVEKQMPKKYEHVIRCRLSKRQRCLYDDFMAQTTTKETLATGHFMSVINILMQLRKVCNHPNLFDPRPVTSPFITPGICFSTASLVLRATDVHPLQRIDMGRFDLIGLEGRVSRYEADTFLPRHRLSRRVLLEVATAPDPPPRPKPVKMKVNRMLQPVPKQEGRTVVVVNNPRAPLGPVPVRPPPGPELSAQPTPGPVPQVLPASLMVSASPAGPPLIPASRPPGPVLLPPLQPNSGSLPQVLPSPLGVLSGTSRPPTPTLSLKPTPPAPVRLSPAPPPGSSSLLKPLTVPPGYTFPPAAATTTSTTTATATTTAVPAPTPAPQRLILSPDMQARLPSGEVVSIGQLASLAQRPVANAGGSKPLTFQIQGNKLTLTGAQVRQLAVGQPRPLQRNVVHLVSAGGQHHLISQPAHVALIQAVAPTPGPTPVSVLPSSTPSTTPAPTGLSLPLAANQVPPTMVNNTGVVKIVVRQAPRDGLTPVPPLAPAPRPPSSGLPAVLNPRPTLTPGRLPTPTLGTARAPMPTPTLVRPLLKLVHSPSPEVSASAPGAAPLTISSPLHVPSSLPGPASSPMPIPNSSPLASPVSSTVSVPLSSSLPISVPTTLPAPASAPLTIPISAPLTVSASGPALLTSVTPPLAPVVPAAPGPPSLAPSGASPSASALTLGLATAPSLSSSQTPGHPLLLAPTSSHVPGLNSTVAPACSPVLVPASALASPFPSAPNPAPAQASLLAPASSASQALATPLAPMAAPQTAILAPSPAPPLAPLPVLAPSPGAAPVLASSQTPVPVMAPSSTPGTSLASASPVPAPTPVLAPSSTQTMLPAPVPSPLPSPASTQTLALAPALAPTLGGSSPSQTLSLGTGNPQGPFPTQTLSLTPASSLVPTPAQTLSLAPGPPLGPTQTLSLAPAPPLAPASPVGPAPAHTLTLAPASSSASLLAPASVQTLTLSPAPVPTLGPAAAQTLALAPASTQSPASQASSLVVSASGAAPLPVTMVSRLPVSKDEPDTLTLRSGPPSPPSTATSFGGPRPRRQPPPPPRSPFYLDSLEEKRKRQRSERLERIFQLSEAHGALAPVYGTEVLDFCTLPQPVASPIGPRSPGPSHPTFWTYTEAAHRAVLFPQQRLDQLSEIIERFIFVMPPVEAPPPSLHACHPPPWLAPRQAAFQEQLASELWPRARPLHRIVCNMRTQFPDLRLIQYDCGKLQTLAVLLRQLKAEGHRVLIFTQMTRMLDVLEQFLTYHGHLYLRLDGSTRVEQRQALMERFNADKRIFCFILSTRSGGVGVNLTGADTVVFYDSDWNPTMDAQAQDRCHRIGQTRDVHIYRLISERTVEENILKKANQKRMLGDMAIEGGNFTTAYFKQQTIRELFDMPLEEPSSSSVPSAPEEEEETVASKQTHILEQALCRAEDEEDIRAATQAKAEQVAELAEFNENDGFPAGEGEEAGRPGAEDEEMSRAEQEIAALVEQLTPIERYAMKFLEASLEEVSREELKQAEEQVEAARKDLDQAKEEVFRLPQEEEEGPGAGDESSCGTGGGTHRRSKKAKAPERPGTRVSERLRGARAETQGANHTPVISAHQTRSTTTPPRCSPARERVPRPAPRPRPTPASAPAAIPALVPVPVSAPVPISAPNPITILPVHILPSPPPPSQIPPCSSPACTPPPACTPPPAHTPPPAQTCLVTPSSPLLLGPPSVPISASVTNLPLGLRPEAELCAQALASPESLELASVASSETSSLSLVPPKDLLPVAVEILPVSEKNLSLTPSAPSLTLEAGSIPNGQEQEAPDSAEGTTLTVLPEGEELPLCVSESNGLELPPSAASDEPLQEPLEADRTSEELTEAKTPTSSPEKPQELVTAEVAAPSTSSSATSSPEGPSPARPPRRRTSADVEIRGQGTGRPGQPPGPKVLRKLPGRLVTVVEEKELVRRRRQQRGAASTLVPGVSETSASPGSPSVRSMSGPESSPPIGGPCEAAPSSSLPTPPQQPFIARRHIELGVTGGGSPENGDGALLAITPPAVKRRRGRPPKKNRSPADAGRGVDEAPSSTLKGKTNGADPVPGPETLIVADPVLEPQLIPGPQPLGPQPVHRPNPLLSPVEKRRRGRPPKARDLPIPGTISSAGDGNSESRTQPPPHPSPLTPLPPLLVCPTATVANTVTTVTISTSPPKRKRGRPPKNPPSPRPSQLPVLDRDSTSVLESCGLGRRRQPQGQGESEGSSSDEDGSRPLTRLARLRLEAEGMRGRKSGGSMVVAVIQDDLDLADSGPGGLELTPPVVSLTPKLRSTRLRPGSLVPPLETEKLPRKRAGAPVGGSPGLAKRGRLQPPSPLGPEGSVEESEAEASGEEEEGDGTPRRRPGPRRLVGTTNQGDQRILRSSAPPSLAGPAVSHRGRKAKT
UniProt P09132: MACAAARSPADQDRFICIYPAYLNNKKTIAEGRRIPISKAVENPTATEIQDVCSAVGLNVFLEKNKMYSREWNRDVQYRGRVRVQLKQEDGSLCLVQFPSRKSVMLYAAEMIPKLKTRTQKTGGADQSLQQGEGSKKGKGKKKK
UniProt Q92673: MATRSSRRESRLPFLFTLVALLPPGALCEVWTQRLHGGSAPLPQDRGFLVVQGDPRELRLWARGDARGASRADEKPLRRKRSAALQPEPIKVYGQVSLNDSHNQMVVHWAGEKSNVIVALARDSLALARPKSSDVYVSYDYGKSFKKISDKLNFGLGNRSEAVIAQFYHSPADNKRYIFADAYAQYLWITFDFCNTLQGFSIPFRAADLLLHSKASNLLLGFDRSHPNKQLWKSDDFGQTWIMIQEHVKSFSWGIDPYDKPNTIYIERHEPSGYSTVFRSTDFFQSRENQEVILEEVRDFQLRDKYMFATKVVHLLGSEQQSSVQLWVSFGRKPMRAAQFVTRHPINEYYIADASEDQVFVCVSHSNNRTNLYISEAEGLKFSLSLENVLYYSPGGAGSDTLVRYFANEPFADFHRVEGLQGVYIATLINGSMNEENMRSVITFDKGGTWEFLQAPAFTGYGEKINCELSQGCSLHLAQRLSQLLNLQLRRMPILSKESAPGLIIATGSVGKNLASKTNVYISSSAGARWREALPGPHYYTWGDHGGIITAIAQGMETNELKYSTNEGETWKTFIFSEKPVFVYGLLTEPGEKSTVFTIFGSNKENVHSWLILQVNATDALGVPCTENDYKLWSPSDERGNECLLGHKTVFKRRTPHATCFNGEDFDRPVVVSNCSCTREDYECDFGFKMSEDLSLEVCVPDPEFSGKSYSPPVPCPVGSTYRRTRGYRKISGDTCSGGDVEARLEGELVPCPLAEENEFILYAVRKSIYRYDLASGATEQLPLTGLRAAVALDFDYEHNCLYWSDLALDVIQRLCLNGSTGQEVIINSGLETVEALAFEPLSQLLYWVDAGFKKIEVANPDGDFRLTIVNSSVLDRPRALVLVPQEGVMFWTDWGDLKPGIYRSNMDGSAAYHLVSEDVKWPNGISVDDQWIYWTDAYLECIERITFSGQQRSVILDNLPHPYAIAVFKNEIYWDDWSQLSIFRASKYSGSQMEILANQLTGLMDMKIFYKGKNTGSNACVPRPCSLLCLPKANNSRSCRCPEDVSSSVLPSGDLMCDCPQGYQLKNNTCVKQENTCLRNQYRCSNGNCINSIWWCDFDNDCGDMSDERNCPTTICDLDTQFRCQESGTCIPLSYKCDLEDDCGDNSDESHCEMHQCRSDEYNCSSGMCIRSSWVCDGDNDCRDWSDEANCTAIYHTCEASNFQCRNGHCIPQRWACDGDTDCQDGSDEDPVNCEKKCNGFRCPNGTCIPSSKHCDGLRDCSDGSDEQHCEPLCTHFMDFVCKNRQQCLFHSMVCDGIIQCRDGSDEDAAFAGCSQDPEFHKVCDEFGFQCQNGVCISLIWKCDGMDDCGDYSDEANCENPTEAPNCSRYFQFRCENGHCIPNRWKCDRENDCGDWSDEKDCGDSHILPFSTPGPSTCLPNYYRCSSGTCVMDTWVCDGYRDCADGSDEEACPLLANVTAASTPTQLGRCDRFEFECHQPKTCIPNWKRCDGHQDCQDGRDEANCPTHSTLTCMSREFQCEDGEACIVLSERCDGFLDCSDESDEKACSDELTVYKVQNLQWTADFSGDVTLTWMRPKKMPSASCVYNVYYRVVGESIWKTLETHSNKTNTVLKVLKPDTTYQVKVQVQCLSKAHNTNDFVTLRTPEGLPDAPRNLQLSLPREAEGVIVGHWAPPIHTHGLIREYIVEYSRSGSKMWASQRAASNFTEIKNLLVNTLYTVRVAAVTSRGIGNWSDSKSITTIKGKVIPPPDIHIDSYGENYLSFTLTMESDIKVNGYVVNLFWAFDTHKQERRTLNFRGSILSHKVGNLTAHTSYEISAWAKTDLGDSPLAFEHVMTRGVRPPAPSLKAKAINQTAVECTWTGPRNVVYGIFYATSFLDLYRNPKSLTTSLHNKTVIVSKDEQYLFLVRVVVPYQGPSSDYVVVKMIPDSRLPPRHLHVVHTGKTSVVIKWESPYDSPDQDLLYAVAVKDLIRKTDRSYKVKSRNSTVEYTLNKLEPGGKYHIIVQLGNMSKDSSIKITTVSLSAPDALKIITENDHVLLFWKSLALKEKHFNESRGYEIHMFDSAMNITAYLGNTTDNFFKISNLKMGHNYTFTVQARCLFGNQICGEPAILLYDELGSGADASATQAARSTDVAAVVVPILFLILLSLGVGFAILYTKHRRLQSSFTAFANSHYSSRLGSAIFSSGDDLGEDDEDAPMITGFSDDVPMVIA
UniProt Q00796: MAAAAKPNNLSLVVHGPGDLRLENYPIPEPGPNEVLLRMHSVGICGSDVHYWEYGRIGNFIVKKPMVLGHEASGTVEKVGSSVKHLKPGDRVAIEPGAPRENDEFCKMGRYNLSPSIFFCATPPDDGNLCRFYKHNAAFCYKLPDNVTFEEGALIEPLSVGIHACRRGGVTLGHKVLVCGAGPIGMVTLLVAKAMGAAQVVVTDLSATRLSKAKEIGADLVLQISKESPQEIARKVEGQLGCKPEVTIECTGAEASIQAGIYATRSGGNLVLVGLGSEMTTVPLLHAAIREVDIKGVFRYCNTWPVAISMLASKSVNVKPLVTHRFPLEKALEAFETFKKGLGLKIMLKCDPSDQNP
UniProt Q9UHB9: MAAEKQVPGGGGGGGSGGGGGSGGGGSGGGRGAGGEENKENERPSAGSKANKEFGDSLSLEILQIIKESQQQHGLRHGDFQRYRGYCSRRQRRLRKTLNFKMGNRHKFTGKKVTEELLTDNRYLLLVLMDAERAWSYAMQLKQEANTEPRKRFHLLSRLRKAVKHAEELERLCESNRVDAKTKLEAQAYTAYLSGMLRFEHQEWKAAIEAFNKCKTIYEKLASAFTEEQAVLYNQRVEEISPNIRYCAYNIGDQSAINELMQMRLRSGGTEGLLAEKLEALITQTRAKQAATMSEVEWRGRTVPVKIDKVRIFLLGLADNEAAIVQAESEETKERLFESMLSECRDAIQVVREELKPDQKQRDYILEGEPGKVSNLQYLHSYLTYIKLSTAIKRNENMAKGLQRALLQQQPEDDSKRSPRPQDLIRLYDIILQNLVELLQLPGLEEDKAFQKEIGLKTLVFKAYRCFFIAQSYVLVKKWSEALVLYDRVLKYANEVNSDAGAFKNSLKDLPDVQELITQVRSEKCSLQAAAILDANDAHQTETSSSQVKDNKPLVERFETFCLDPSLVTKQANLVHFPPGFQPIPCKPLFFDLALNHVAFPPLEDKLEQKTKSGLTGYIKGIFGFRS

Row | Target | probe-labelled cysteine peptide fold change
1 | SRCAP_Q6ZRS2_1993_FIFVMPPVEAPPPSLHACHPPPWLAPR (UniProt Q6ZRS2) | 0.0413
2 | SPG11_Q96JI7_1890_LLDDGCVHEASR (UniProt Q96JI7) | -0.25
3 | SRP19_P09132_17_FICIYPAYLNNKK (UniProt P09132) | 0.198
4 | SRPRA_P08240_363_NVAADIAVQLCESVANKLEGK (UniProt P08240) | 0.199
5 | SOGA1_O94964_1113_EITNCVR (UniProt O94964) | -0.0397
6 | SPOUT1_Q5T280_151_ILQYLECPQYLR (UniProt Q5T280) | -0.0551
7 | SP100_P23497_248_AEPTESCEQIAVQVNNGDAGR (UniProt P23497) | -0.0959
8 | SORL1_Q92673_1158_CDLEDDCGDNSDESHCEMHQCR (UniProt Q92673) | -0.152
9 | SORD_Q00796_106_ENDEFCK (UniProt Q00796) | -0.0657
10 | SNRPF_P62306_66_CNNVLYIR (UniProt P62306) | -0.00262
11 | SPTAN1_Q13813_956_EQAQSCR (UniProt Q13813) | -0.0464
12 | SPRYD7_Q5W111_150_NMHCPASGIR (UniProt Q5W111) | 0.0816
13 | SPOUT1_Q5T280_139_KGQACVQLAR (UniProt Q5T280) | 0.0141
14 | SOGA1_O94964_984_DCNHLGALACQDPPGR (UniProt O94964) | -0.177
15 | SORD_Q00796_120_YNLSPSIFFCATPPDDGNLCR (UniProt Q00796) | 0.0609
16 | SPINT1_O43278_424_FTYGGCYGNK (UniProt O43278) | -0.0932
17 | SNW1_Q13573_250_IPPCISNWK (UniProt Q13573) | -0.157
18 | SPTAN1_Q13813_1444_MMLDQCLELQLFHR (UniProt Q13813) | 0.116
19 | SORL1_Q92673_1376_CENGHCIPNR (UniProt Q92673) | -0.0681
20 | SPATS2L_Q9NUQ6_351_AQIMLCGEITHPK (UniProt Q9NUQ6) | -0.0897

Row | Target | probe-labelled cysteine peptide fold change
21 | SRP68_Q9UHB9_586_QANLVHFPPGFQPIPCK (UniProt Q9UHB9) | 0.0722
22 | SRP19_P09132_94_QEDGSLCLVQFPSRK (UniProt P09132) | 0.413
23 | SQSTM1_Q13501_113_DHRPPCAQEAPR (UniProt Q13501) | 0.0561
24 | SPTLC2_O15270_139_IRDNWNRPICSVPGAR (UniProt O15270) | -0.0633
25 | SRM_P19623_89_DEFSYQEMIANLPLCSHPNPR (UniProt P19623) | 0.0756
26 | SRGN_P10124_40+49_CNPDSNSANCLEEK (UniProt P10124) | -0.774
27 | SP140_Q13342_686_SQNNSSVDPCMR (UniProt Q13342) | -0.246
28 | SRP68_Q9UHB9_173_LCESNR (UniProt Q9UHB9) | 0.329
29 | SRCAP_Q6ZRS2_141_GHWDYLCEEMQWLSADFAQER (UniProt Q6ZRS2) | 0.0867
30 | SPTAN1_Q13813_1454_DCEQAENWMAAR (UniProt Q13813) | 0.0387
31 | SPRED2_Q7Z698_73_LVVLECYVR (UniProt Q7Z698) | -0.0368
32 | SRP54_P61011_136_TCLICADTFR (UniProt P61011) | -0.0353
33 | SPAG5_Q96R06_704_VLEQVSAQLEECK (UniProt Q96R06) | 0.112
34 | SPATA5L1_Q9BVQ7_78_RDGADGFVQLDPLCASPGAAVGASR (UniProt Q9BVQ7) | -0.102
35 | SPATS2_Q86XZ4_280_QAFAELESCLMDR (UniProt Q86XZ4) | -0.0886
36 | SORD_Q00796_45_MHSVGICGSDVHYWEYGR (UniProt Q00796) | -0.268
37 | SP3_Q02447_602_VACTCPNCK (UniProt Q02447) | 0.0547
38 | SP100_P23497_266+270_EMPCPLPCDEESPEAELHNHGIQINSCSVR (UniProt P23497) | -0.396
39 | SPATA20_Q8TB22_671_CVCLLTAFSER (UniProt Q8TB22) | -0.0396
40 | SPATA5_Q8NB90_459_HPSIIFIDELDALCPK (UniProt Q8NB90) | -0.207

Individual results from the results shown.
SRP19_P09132_94_QEDGSLCLVQFPSRK (UniProt P09132) – probe-labelled cysteine peptide fold change: 0.413
SORL1_Q92673_1376_CENGHCIPNR (UniProt Q92673) – probe-labelled cysteine peptide fold change: -0.0681

Reference: the supplement of paper PMC12067093, “Discovery and optimisation of a covalent ligand for TRIM25 and its application to targeted protein ubiquitination” (Chemical Science, 2025)
